Measured data: PubChem BioAssay AID686938 (Drosophila RNAi Screening Center, 2013)
The deposit covers about 23,000 reagents; this is an unselected part of those that have a named target and a result. Over the whole deposit, 75 (0.33%) were called active. 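Raw plate signals without normalisation; calls rest on plate z-scores that were not deposited; ratio present for only 364 wells.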 A number with no mark means an inactive call. The record does not give: the dose of the treatment.

Screen: 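Fly genes required for calcium entry once internal stores are emptied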 (primary screen)
Cell system: Drosophila S2R+ cells
Knock-down reagent: long dsRNA against Drosophila genes, about 0.25 µg dsRNA per well, roughly 10,000 cells
Time to read-out: 5 days of knock-down before the calcium assay
Treatment: thapsigargin (SERCA pump blocker) to empty calcium stores; entry signal taken 4 min after adding it
Measurement: 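Duplicate raw fluo-4 intensities per well from a plate reader, at rest and four minutes after thapsigargin emptied calcium stores; entry-to-rest ratio filled for only some wells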
Scale: calcium entry signal: higher = stronger calcium signal after store depletion; resting calcium signal: higher = higher resting calcium signal
Units: calcium entry signal in fluorescence units; resting calcium signal in fluorescence units
Hit rule: 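Hit if the duplicate-averaged plate z-score for entry over resting signal is under −3; wells with weak total dye signal (Fmax z < −2) or more than 5 off-targets removed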
Meaning of the calls: active = strongly reduced calcium entry; inactive = no strong reduction

{"Gene":"Alp5","amplicon":"DRSC14269","calcium entry signal, replicate 1":4.67e7,"calcium entry signal, replicate 2":3.96e7,"resting calcium signal, replicate 1":2.27e7,"resting calcium signal, replicate 2":1.76e7}
{"Gene":"CG13426","amplicon":"DRSC06388","calcium entry signal, replicate 1":4.84e7,"calcium entry signal, replicate 2":3.44e7,"resting calcium signal, replicate 1":2.05e7,"resting calcium signal, replicate 2":1.99e7}
{"Gene":"CG8343","amplicon":"DRSC04905","calcium entry signal, replicate 1":4.26e7,"resting calcium signal, replicate 1":2.11e7}
{"Gene":"CG42749","amplicon":"DRSC18091","calcium entry signal, replicate 1":3.21e7,"calcium entry signal, replicate 2":3.24e7,"resting calcium signal, replicate 1":1.56e7,"resting calcium signal, replicate 2":1.69e7}
{"Gene":"CG42749","amplicon":"DRSC18092","calcium entry signal, replicate 1":3.40e7,"calcium entry signal, replicate 2":3.04e7,"resting calcium signal, replicate 1":1.64e7,"resting calcium signal, replicate 2":1.58e7}
{"Gene":"Cap-H2","amplicon":"DRSC14908","calcium entry signal, replicate 1":5.13e7,"calcium entry signal, replicate 2":5.34e7,"resting calcium signal, replicate 1":2.19e7,"resting calcium signal, replicate 2":2.33e7}
{"Gene":"Drsl3","amplicon":"DRSC22630","calcium entry signal, replicate 1":4.03e7,"calcium entry signal, replicate 2":2.89e7,"resting calcium signal, replicate 1":2.58e7,"resting calcium signal, replicate 2":1.52e7}
{"Gene":"Ntf-2","amplicon":"DRSC20552","calcium entry signal, replicate 1":6.65e7,"calcium entry signal, replicate 2":2.96e7,"resting calcium signal, replicate 1":5.92e7,"resting calcium signal, replicate 2":1.62e7}
{"Gene":"Ldsdh1","amplicon":"DRSC18219","calcium entry signal, replicate 1":3.18e7,"calcium entry signal, replicate 2":3.69e7,"resting calcium signal, replicate 1":1.46e7,"resting calcium signal, replicate 2":1.68e7}
{"Gene":"CR15821","amplicon":"DRSC08481","calcium entry signal, replicate 1":2.82e7,"calcium entry signal, replicate 2":3.28e7,"resting calcium signal, replicate 1":1.47e7,"resting calcium signal, replicate 2":1.49e7}
{"Gene":"pix","amplicon":"DRSC10533","calcium entry signal, replicate 1":1.30e7,"calcium entry signal, replicate 2":1.71e7,"resting calcium signal, replicate 1":8.90e6,"resting calcium signal, replicate 2":1.18e7}
{"Gene":"l(3)neo43","amplicon":"DRSC14988","calcium entry signal, replicate 1":3.47e7,"calcium entry signal, replicate 2":5.98e7,"resting calcium signal, replicate 1":1.79e7,"resting calcium signal, replicate 2":6.05e7}
{"Gene":"betaCOP","amplicon":"DRSC20312","calcium entry signal, replicate 1":2.17e7,"calcium entry signal, replicate 2":2.40e7,"resting calcium signal, replicate 1":1.59e7,"resting calcium signal, replicate 2":1.38e7}
{"Gene":"CG42674","amplicon":"DRSC10066","calcium entry signal, replicate 1":4.56e7,"calcium entry signal, replicate 2":2.55e7,"resting calcium signal, replicate 1":2.07e7,"resting calcium signal, replicate 2":1.32e7}
{"Gene":"CG42674","amplicon":"DRSC10067","calcium entry signal, replicate 1":2.29e7,"calcium entry signal, replicate 2":3.64e7,"resting calcium signal, replicate 1":1.14e7,"resting calcium signal, replicate 2":1.63e7}
{"Gene":"CG42674","amplicon":"DRSC10811","calcium entry signal, replicate 1":3.40e7,"calcium entry signal, replicate 2":4.86e7,"resting calcium signal, replicate 1":1.64e7,"resting calcium signal, replicate 2":2.02e7}
